The values below come from patent US20220363770A1.

Protein sequences, listed by entry. Tags and fused reporters are not part of them. Lines headed by an entry give the natural chain unless they say otherwise; changes in a name come on top.
UniProt Q16602: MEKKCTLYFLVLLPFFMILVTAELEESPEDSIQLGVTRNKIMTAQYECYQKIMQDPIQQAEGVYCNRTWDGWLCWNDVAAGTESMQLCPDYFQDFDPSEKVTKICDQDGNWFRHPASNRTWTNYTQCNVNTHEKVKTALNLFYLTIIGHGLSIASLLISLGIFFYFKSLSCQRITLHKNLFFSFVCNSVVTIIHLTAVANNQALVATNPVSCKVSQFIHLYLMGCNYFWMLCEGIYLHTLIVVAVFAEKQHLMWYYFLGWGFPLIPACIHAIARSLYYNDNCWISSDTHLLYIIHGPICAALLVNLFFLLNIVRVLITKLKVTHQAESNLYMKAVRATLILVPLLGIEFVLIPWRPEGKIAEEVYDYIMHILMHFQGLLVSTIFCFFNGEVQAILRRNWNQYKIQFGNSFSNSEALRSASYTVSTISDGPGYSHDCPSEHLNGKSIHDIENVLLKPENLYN

Residue numbers refer to the chain shown, from its start. These are yes or no findings as the source states them, for the method shown. Some binding calls cover weakened binding; strength is not graded here.

B1: anti-CGRP receptor variant 10, yeast-displayed Fab (Fab, V domains shown)
VH: QVQLVESGGGVVQPGRSLRLSCAASGFFFGSYGMHWVRQAPGKGLEWVAVISFAGEIEHYVDSVKGRFTISRDNSKNTLFLQMNSLRAEDTAVYYCARDRLNYYESSGYYHYKYYGMAVWGQGTTVTVSS
VL: QSVLTQPPSVSAAPGQKVTISCSGSSSNIGNNYVSWYQQLPGTAPKLLIYDNNKRPSGIPDRFSGSKSGTSATLGITGLQTGDEADYYCGTWDSRLSAVVFGGGTKLTVLG
B2: anti-CGRP receptor variant 02, yeast-displayed Fab (Fab, V domains shown)
VH: B1 VH with F28T, G30S, Y32F, A54D, E56S, E58K, H59Y, Y60S
VL: B1 VL with S26R, N31I, N32K, Y33A
B3: anti-CGRP receptor variant 07, yeast-displayed Fab (Fab, V domains shown)
VH: B1 VH with F28Y, G30M, S31T, A54D, E56S, E58K, H59Y, Y60S
VL: B1 VL
B4: anti-CGRP receptor variant 14, yeast-displayed Fab (Fab, V domains shown)
VH: B1 VH with F28T, G30S, Y32F, A54D, E56S, E58K, H59Y, Y60S
VL: B1 VL with R95W, L96H, S97R, A98V, V100T
B5: anti-CGRP receptor variant 01, yeast-displayed Fab (Fab, V domains shown)
VH: B1 VH with F28T, G30S, Y32F, A54D, E56S, E58K, H59Y, Y60S
VL: B1 VL with S26Y, N31R, N32Y, Y33S
B6: anti-CGRP receptor variant 05, yeast-displayed Fab (Fab, V domains shown)
VH: B1 VH with F28T, G30S, Y32F, A54D, E56S, E58K, H59Y, Y60S
VL: QSVLTQPPSVSAAPGQKVTISCSGSFSNIGRSTVSWYQQLPGTAPKLLIYDNRWRAGGIPDRFSGSKSGTSATLGITGLQTGDEADYYCGTWDYQWKAVVFGGGTKLTVLG
B7: anti-CGRP receptor variant 04, yeast-displayed Fab (Fab, V domains shown)
VH: QVQLVESGGGVVQPGRSLRLSCAASGFTFSSFGMHWVRQAPGKGLEWVAVISFDGSIKYSVDSVKGRFTISRDNSKNTLFLQMNSLRAEDTAVYYCARDRLNYYRSFGYYGYHYYGMAVWGQGTTVTVSS
VL: B1 VL
B8: anti-CGRP receptor variant 06, yeast-displayed Fab (Fab, V domains shown)
VH: B7 VH with R105E, F107S, G111H, H113K
VL: B1 VL with S26Y, N31R, N32K, Y33S
B9: anti-CGRP receptor variant 13, yeast-displayed Fab (Fab, V domains shown)
VH: B7 VH with R105E, F107S, G111H, H113K
VL: B1 VL with S26R, N31R, N32R, Y33T
B10: anti-CGRP receptor variant 12, yeast-displayed Fab (Fab, V domains shown)
VH: B7 VH with R105E, F107S, G111H, H113K
VL: B6 VL with F26R, S32Y, T33S, W54Y, G57Q, Y94W, Q95A, W96T, K97T, A98S
B11: anti-CGRP receptor variant 08, yeast-displayed Fab (Fab, V domains shown)
VH: B7 VH with R105E, F107S, G111H, H113K
VL: B1 VL with S26Y, N31W, N32W, Y33P
B12: anti-CGRP receptor variant 09, yeast-displayed Fab (Fab, V domains shown)
VH: B1 VH with F28T, G30S, Y32F, E58D, H59Y
VL: B1 VL
B13: anti-CGRP receptor variant 15, yeast-displayed Fab (Fab, V domains shown)
VH: B7 VH with R105E, F107S, G111H, H113K
VL: B1 VL with S94W, R95W, L96R, S97K, V100I

The assay deals with human CGRP receptor extracellular domain (ECD) (human) (UniProt Q16602). The assay is described as follows: yeast-displayed Fab binding screens.
With B1, the binding entry was “binds”.

As to B2, the binding result was “binds”.

As to B3, the binding entry is on record as “binds”.

Consider B4, for which the binding entry was “binds”.

Consider B5, for which the binding result is reported as “binds”.

Take B6: the binding entry is listed as “binds”.

As to B7, the binding entry is given as “binds”.

On to B8, for which the binding entry was “binds”.

As to B9, the binding result was “binds”.

As for B10, the binding entry is “binds”.

Turning to B11, the binding result is “binds”.

As for B12, the binding result is listed as “binds”.

With B13, the binding result is listed as “binds”.
